Most values lie at the floor of the assay. Slopes are relative: functional sequences can read slightly below zero.
Tested on: Saccharomyces cerevisiae PS128 hsf1 delta, HSF1(1-493) fusion
Test: growth estimate (transactivation domain function in HSF1 fusion, heat-shock survival) (a.u. (slope of normalised read count over time)); higher = stronger growth at 37°C, i.e. more transactivation activity
Details: library: random library

Substance | growth estimate
PCGT | < -0.25
LWGLIYWLLGVNLRRNLLYV | < -0.25
SAQCDPSVNDQTGRV | < -0.25
GMFHR | -0.219
YSYGQIHDERGARLRE | < -0.25
DAHRVEP | < -0.25
FQSIPTAL | < -0.25
HSEIVAEFRSLLCRGARECS | < -0.25
YRRSDICPYSRAQLGCA | < -0.25
IRQISSARRLINRPDNYVII | -0.246
FIGGLSLGPC | -0.0904
LRCHVVKSARRALRANL | < -0.25
VRSTRGLVACLCTVSTPVAG | < -0.25
DETQTDARRTCPW | < -0.25
ECYVQ | < -0.25
FEICPLSVSVSATSERITPQ | < -0.25
VGQYRLHNLNTGVAGPTC | < -0.25
GVLRRR | < -0.25
DDTNEA | < -0.25
SLNSRYCTHSRSTLTDPVPS | < -0.25
GGGTDL | < -0.25
FRLARTGSIRSESNAVVSLG | < -0.25
QSCVFRVVSVQKASVCYPTV | < -0.25

Substance | growth estimate
GHCGRTRCT | < -0.25
YDGWCCGTGGWLMQCSQVAP | < -0.25
HCNRQILDLPRKGIRS | < -0.25
SRAVTSLVNSFASIAAHVVL | < -0.25
LCTHG | < -0.25
TGCPPETPHSLTSKLPQSYV | < -0.25
GEFFTCRVRQVERPCGVLEG | < -0.25
RNVTAFITGRRRFVLRVRA | < -0.25
SLARSYAHGRTKSCLSAEIC | -0.229
LWLGDSL | < -0.25
ALPSGVTAILLCSNLRSLVC | < -0.25
SLGFVAANLRITYGHRKPER | < -0.25
WLRYSFKSGNIEIGPYNGQA | < -0.25
GGVVWVSYVFCRECTNMKRP | < -0.25
CPIPFMVGR | < -0.25
HLENRILLCHGQRWFHTPVC | < -0.25
GSLLLVISVLGIKNGAHSH | < -0.25
GAGGWGLNKVIAGPGTRAHH | < -0.25
HGGRRACLSCRISWWIIAVQ | < -0.25
LRVTIYRKGVTPLALR | < -0.25
KLAACAHRLRLVIGWSEQRG | < -0.25
GCKCNGYSLIDVFIEIRPIW | < -0.25
EWAGAYKY | -0.106

Substance | growth estimate
QGQRPVLRFALLARGPQ | < -0.25
SLCLTAPCLRAYLSKARTLH | < -0.25
SVSDYASGQL | < -0.25
VAGSLQLQLGWR | < -0.25
DSTPRSPDVDCCDCVN | < -0.25
ADRIL | < -0.25
PKSRLNIES | < -0.25
GKEVFVGRAKRGVILCASGS | -0.208
LYAVLDSVRRGS | < -0.25
ANEPKRRWAGFPGLHLSRGC | < -0.253
LARNKGLHL | < -0.25
RPLVGVGRNWTFVPAGTWLR | < -0.25
QGYLKGAQPYTGCKQRIQLR | < -0.25
NTQTRRVHGKSGFH | < -0.25
GILGRAHSLLLCPAGVLR | < -0.25
DMRRRGCGSTLFTLP | < -0.25
NRPAARGVNAEIYHCTMNG | < -0.25
ASCRGGKRRNSWKGPSGLHL | < -0.25
LWANAHAVLATASPSKMSQR | < -0.25
PKECRMTGHI | < -0.25
TRGCYLYWTGGSFTAMLYYR | < -0.25
AVNE | < -0.25
KTCTSETWLRIGLTWLTKDH | < -0.25

Fetched one by one from above (two):
Substance | growth estimate
SVSDYASGQL | < -0.25
TRGCYLYWTGGSFTAMLYYR | < -0.25

Additional results

Substance | growth estimate
LVEGYFTRFAWAIYLCIRLR | < -0.25
RGNGLFWFVLPIL | -0.24
SIAGGQGIAVVPPFMRETLL | < -0.25
REIRTIGSGRL | < -0.25
TSISFEVYDRISDLYVYRQA | < -0.25
LQINS | < -0.25
GWGCLEFSSQ | < -0.25
PQKDTG | < -0.25
LSCNLRHRKTSNFAPERACP | < -0.25
EMTSVHWSIRSTAKPDALGQ | -0.246
GEHKCPVESAEFWIAQARPR | < -0.25
KLSGPRHIFRMNELFGLRAR | < -0.25
LNLTIGAVPRSIGHPSL | < -0.25
VVLINPCSNRLHVGSSVPIS | < -0.25
TKPSPIKPGQGYRQWEVYTS | < -0.25
LRADVRRIRSGANANLGFAV | < -0.25
RPIWIALRWGCSEIAPLIDD | < -0.25
RSDGVSGTLSRP | < -0.25
WRGMGVLRAELFAN | < -0.25
VQQ | < -0.25
HNHCDVGYACHGFS | < -0.25
LGSGYFLTPGCTALVARYRG | < -0.25
LFSGES | < -0.25

Substance | growth estimate
IMSRGQVRTGCLDACN | < -0.25
NLAQVVPPWHKSACPREGGP | -0.0976
SGLHRSDDSSVPPSTQ | < -0.25
VTGRKRIRYLGHPEWTPNIW | < -0.25
TRRAACGI | < -0.25
GFPATGKVVVTSRIPHLASQ | < -0.25
TADSDTLVKLLSPLTFAEDT | -0.214
DIHIMRGGTSPCL | < -0.25
MNS | < -0.25
DDTV | < -0.25
FCKRLAVQQERWTCRPGLGD | < -0.25
TVVYLKYVTHQNLIHPVRGR | < -0.25
QLRGFCPDKTLEGYRVKVGD | < -0.25
GYHVCHMCQTCHASCRVCRL | < -0.25
IHA | < -0.25
HKPRRYLTAVHVERGR | < -0.25
VALCFGCCLGLRVDQGTVMI | < -0.25
GRTWAQ | < -0.25
DGAGK | < -0.25
NGYTPSAPHKT | < -0.25
PMERSSRFLRRSEDAWLV | < -0.25
SFTLCARPHGSEINPPTVRA | < -0.25
AKPKIYSMAS | < -0.25

Nothing new here: entries from further up.
Substance | growth estimate
SFTLCARPHGSEINPPTVRA | < -0.25
AKPKIYSMAS | < -0.25

Copied from the list:
Under growth estimate, TVVYLKYVTHQNLIHPVRGR reads < -0.25
Under growth estimate, NGYTPSAPHKT reads < -0.25
Under growth estimate, DGAGK reads < -0.25

(further entries)

Substance | growth estimate
ENCPGSRLE | < -0.25
MQALGDPGAGRSQRYNRRRV | < -0.25
VKES | < -0.25
PLCSEY | -0.0071
VPEYVRSMAG | < -0.25
NSCRRNRATPSHRVLTQFFA | < -0.25
VTYHEVAALEL | < -0.25
CKRTGVLGAGPGYRGHSLTQ | < -0.25
AVALAAHECLSQFRKVIKST | < -0.25
IHYTSSAPNVPLPPSLKACK | < -0.25
IDHGGRDSESGRD | < -0.25
DTL | < -0.25
SEKNSSEGAACYVRQSVLQC | < -0.25
HHVRSTGAS | < -0.25
CFCDEFQVHATCVRGQGNQG | < -0.25
TYTL | -0.231
SMKK | < -0.25
NKRAGRDPPPRLGRGRIRC | < -0.25
LGKSQYAYKVWPDAHGT | < -0.25
RRHHCKPDGLAVGFISTDFV | < -0.25
VLVSAPCKPE | < -0.25
HSGIEWKG | < -0.25
GVESRLLTDPTGNPLN | < -0.25

Substance | growth estimate
KDGPSHSEEAVRG | -0.248
RRLNGPHTVLRRAKGRLLLA | < -0.25
IGLRVLRGYPH | < -0.25
GTCVDRSHVDRDPSTLSLRP | < -0.25
LQRSPSMYHGNCSLNL | < -0.25
IEFHIHELVRETYAGSVHLP | < -0.25
ACTKMECTME | < -0.25
YGFATLVRYNK | < -0.25
PCYKRIQLF | < -0.25
LRGFDQRRTYLAG | < -0.25
REEPLRSSGRALGTVLYGCR | < -0.25
CQT | < -0.25
SGIVVLIDHRRVKATGTSVE | < -0.25
ILHGLTGIDQAGLARVARCC | < -0.25
SCYLIVVSPIAAAPSLRIEG | -0.24
IRVTGSVGGISLLAALYDSA | < -0.25
RIIDVNRKLETLGFYNRCSE | < -0.25
RGGLSSGSDTPPWLVPVGHE | < -0.25
NTYEGGTVVLSLVYRHVVWC | -0.243

Reference: the supplement of paper PMC5949888
